Test results from PMC4212580.
Results are given in words; binding and its absence hold for the method and conditions named. Binding seen in cells or lysates may run through a third protein.

By UniProt entry, the sequences of proteins in these tests, tags left out.
UniProt P60842: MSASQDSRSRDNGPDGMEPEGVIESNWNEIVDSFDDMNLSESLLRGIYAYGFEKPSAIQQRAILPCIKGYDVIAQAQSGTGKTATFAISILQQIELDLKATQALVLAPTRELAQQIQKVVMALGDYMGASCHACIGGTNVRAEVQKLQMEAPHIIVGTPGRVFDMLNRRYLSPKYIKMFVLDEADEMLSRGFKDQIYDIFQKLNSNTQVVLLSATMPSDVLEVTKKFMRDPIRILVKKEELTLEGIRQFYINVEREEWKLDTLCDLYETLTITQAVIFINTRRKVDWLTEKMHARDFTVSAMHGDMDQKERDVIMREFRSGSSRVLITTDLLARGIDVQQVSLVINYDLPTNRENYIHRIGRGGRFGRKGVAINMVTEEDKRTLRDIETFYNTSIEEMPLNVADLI
UniProt Q14240: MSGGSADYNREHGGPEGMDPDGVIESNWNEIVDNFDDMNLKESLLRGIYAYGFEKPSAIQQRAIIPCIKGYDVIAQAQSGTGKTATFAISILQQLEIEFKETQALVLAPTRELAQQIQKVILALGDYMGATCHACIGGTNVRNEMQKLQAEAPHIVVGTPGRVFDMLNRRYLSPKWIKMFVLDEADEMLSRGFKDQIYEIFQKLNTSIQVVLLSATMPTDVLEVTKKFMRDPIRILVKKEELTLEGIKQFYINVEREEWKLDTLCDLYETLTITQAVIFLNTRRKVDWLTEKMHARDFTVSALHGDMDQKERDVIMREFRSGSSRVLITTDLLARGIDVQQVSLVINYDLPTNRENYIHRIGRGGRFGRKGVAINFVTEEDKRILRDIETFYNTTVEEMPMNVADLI
UniProt P04406: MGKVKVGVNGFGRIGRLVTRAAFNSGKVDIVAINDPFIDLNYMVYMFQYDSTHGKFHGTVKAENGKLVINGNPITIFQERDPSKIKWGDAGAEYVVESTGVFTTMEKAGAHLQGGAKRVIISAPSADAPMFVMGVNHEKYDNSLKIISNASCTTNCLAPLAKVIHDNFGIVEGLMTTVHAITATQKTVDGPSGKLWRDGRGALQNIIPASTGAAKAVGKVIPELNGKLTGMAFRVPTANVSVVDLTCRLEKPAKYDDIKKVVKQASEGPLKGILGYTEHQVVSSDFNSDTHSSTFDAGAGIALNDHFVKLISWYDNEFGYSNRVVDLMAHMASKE

Assays:
[1] = molecular target: GFP-eIF4AI (eukaryotic translation initiation factor eIF4AI, GFP fused to the N-terminus) (human) (UniProt P60842); assay: co-IP; same immunoprecipitation on anti-GFP beads from transfected 293T lysate; bound fraction read by western blot (Figure 2A) and silver-stained gel (Figure 2B)
[2] = molecular target: GFP-eIF4AII (eukaryotic translation initiation factor eIF4AII, GFP fused to the N-terminus) (human) (UniProt Q14240); assay: as above

binding [1]: no binding
binding [2]: no binding
Substance: GAPDH (from UniProt P04406 1-335)
